Results reported in paper PMC5380967.
No constants are given. Whether binding was seen depends on the method and setting. Binding seen in cells or lysates may run through a third protein. These calls come from enrichment with a bait or labelling near it, and not all partners need be listed. For part of these data: Sequences can lack the tags named with a protein.

Chains of the proteins cited; added tags and fusions are not shown.
UniProt Q93008: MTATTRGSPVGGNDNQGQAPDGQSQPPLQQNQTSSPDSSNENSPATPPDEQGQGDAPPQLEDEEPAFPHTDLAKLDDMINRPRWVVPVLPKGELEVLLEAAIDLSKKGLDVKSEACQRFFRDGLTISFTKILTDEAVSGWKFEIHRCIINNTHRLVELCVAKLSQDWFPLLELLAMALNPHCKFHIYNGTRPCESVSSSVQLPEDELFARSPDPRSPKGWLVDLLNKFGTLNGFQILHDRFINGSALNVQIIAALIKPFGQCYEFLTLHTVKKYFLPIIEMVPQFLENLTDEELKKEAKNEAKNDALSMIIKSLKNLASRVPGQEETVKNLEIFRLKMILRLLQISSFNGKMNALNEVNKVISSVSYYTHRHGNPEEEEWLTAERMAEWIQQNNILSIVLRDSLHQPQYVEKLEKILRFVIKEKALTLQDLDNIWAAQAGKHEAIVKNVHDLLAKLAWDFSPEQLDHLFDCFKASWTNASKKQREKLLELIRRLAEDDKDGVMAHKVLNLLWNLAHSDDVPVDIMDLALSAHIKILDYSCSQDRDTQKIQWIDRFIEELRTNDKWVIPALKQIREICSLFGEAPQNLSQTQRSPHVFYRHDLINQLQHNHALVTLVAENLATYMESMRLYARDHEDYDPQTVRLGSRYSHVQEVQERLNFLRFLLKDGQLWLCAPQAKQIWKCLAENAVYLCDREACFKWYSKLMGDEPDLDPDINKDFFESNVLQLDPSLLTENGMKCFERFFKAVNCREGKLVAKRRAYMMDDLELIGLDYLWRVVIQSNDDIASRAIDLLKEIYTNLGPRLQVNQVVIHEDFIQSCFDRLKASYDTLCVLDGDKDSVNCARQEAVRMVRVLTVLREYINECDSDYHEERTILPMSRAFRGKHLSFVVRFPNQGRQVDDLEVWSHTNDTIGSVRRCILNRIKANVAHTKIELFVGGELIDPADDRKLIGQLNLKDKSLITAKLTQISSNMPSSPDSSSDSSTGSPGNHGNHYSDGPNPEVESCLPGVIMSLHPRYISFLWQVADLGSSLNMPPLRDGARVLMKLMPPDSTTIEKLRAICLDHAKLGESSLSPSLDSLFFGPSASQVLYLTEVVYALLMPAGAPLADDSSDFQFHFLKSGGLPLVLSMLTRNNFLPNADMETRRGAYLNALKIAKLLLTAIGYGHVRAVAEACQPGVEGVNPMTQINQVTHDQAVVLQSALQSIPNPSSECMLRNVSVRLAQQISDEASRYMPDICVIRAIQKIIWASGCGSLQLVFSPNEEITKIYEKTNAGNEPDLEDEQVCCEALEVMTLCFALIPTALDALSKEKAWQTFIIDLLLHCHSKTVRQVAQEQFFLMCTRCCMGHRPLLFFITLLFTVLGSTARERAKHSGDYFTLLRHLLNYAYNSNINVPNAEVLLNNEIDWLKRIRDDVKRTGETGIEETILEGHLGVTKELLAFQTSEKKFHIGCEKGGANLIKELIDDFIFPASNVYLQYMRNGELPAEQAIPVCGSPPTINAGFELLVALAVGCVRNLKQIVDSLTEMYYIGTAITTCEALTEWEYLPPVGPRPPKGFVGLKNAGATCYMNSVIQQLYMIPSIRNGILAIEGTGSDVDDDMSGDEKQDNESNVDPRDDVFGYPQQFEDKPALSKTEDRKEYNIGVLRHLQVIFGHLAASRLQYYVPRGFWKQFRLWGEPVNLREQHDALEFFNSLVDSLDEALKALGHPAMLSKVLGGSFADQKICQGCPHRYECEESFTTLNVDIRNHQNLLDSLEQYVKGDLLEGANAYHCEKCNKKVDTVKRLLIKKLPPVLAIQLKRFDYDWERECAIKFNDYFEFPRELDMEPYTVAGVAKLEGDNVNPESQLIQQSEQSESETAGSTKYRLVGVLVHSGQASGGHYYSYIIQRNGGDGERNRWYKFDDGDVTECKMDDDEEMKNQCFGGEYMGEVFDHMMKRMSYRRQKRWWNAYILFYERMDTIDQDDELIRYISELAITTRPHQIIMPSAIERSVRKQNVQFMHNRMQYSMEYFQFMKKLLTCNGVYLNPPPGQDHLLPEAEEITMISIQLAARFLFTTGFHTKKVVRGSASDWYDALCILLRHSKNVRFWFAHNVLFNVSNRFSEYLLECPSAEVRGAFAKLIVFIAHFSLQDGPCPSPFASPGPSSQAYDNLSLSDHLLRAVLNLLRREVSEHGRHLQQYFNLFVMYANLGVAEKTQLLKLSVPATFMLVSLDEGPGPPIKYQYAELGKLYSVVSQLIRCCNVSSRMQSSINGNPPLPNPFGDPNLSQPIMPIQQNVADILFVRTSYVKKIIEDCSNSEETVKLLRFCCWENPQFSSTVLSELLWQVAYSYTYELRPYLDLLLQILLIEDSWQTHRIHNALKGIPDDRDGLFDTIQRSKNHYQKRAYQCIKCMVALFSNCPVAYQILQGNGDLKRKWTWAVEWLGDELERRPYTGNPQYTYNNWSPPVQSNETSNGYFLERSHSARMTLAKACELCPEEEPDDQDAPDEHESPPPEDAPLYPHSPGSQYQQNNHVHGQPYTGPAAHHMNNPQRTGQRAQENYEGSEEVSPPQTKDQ
UniProt Q15154: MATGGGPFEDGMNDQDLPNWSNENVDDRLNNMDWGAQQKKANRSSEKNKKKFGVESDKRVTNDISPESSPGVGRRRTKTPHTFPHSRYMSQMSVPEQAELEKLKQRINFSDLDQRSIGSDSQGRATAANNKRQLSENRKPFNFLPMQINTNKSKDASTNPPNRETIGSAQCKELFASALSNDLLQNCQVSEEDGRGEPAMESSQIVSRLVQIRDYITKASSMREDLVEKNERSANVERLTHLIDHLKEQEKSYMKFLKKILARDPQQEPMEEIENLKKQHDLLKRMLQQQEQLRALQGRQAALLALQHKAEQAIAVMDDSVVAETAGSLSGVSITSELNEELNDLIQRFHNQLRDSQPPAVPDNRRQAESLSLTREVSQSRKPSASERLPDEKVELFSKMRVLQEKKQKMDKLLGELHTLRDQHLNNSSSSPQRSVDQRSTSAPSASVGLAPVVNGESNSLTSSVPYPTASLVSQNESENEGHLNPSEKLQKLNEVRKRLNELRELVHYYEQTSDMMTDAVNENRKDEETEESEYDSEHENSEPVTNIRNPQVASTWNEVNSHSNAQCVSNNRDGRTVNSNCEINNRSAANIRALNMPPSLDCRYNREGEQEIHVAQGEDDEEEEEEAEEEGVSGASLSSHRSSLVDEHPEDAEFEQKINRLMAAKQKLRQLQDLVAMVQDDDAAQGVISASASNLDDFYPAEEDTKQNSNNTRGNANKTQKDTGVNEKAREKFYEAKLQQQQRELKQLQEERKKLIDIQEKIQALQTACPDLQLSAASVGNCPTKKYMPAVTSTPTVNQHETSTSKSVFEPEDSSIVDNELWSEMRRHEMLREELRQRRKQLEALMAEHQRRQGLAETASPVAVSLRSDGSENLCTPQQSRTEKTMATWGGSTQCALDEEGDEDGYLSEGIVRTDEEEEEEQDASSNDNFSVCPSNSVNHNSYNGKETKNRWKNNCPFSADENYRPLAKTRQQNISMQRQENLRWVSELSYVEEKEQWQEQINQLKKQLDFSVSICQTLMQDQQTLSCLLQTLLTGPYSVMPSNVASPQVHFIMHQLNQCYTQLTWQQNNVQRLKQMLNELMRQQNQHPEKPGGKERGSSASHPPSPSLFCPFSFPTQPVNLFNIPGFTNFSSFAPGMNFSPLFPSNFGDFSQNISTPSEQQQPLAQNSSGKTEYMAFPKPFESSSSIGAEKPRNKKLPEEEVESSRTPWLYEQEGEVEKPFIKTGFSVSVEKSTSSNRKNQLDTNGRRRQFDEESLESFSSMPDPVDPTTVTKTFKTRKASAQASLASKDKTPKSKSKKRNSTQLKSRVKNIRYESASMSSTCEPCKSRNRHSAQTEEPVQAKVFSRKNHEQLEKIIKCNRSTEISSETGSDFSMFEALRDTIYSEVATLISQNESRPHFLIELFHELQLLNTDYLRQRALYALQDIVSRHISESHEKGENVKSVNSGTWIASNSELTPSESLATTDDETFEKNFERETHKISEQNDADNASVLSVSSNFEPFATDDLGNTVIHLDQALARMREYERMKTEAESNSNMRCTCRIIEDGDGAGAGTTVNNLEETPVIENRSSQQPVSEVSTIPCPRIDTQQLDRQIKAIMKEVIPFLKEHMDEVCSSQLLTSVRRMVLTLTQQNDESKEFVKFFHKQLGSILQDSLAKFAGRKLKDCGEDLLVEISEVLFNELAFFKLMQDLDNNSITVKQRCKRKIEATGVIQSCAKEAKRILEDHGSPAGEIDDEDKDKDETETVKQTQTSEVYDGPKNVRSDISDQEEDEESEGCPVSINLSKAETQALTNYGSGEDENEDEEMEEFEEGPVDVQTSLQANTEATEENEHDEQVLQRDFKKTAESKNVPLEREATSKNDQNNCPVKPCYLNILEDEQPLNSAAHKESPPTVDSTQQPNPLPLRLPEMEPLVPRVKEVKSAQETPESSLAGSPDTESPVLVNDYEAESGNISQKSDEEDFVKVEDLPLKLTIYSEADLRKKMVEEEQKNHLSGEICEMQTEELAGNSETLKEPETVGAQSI

T1: FLAG-CEP131 (human) (UniProt Q9UPN4)
T1 sequence: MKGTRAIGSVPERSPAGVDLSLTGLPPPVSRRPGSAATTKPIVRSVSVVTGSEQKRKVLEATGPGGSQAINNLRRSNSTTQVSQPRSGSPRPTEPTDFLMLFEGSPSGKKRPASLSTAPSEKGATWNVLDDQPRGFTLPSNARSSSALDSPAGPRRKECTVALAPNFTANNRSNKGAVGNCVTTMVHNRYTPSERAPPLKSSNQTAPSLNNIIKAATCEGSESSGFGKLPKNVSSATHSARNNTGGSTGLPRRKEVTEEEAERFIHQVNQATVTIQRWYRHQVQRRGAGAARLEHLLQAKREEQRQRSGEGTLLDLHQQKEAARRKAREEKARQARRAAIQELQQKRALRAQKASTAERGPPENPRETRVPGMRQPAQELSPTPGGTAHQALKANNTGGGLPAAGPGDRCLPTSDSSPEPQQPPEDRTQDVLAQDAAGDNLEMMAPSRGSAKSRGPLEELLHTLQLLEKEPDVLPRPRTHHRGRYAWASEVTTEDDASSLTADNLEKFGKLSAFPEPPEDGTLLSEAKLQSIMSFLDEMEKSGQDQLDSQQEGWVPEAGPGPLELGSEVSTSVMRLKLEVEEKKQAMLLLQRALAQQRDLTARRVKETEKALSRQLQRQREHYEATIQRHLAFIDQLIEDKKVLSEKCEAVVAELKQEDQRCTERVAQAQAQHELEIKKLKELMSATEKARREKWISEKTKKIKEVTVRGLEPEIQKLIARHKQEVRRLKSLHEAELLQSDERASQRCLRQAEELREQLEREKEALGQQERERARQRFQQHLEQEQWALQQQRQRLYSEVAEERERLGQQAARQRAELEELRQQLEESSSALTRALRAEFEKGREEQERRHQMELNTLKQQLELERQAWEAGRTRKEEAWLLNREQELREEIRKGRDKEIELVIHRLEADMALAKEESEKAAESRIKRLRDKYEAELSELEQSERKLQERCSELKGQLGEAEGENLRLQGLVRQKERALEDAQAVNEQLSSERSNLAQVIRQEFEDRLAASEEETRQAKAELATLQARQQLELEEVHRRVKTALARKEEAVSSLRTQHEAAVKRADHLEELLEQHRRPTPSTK


Legend:
[1] = target: T1, FLAG-CEP131 (human); test: affinity purification with mass spectrometry; whole-cell extracts of HeLa cells with Dox-inducible, stably integrated FLAG-tagged bait on an anti-FLAG M2 column; washed with cold PBS plus 0.2% Nonidet P-40; eluted with FLAG peptide; bands of a silver-stained gel analysed by LC-MS/MS
[2] = target: FLAG-USP9X (human) (UniProt Q93008); test: as above

Row | Molecule | binding [1] | binding [2]
1 | ubiquitin-specific peptidase 9, X-linked (USP9X), endogenous (from UniProt Q93008 1-2554) (enzyme) | binds | 
2 | PCM1 (pericentriolar material 1), endogenous (from UniProt Q15154 1-2024) | binds | 
3 | CEP131, centriolar satellite protein, endogenous (protein, UniProt Q9UPN4 1-1083) MKGTRAIGSVPERSPAGVDLSLTGLPPPVSRRPGSAATTKPIVRSVSVVTGSEQKRKVLEATGPGGSQAINNLRRSNSTTQVSQPRSGSPRPTEPTDFLMLFEGSPSGKKRPASLSTAPSEKGATWNVLDDQPRGFTLPSNARSSSALDSPAGPRRKECTVALAPNFTANNRSNKGAVGNCVTTMVHNRYTPSERAPPLKSSNQTAPSLNNIIKAATCEGSESSGFGKLPKNVSSATHSARNNTGGSTGLPRRKEVTEEEAERFIHQVNQATVTIQRWYRHQVQRRGAGAARLEHLLQAKREEQRQRSGEGTLLDLHQQKEAARRKAREEKARQARRAAIQELQQKRALRAQKASTAERGPPENPRETRVPGMRQPAQELSPTPGGTAHQALKANNTGGGLPAAGPGDRCLPTSDSSPEPQQPPEDRTQDVLAQDAAGDNLEMMAPSRGSAKSRGPLEELLHTLQLLEKEPDVLPRPRTHHRGRYAWASEVTTEDDASSLTADNLEKFGKLSAFPEPPEDGTLLSEAKLQSIMSFLDEMEKSGQDQLDSQQEGWVPEAGPGPLELGSEVSTSVMRLKLEVEEKKQAMLLLQRALAQQRDLTARRVKETEKALSRQLQRQREHYEATIQRHLAFIDQLIEDKKVLSEKCEAVVAELKQEDQRCTERVAQAQAQHELEIKKLKELMSATEKARREKWISEKTKKIKEVTVRGLEPEIQKLIARHKQEVRRLKSLHEAELLQSDERASQRCLRQAEELREQLEREKEALGQQERERARQRFQQHLEQEQWALQQQRQRLYSEVAEERERLGQQAARQRAELEELRQQLEESSSALTRALRAEFEKGREEQERRHQMELNTLKQQLELERQAWEAGRTRKEEAWLLNREQELREEIRKGRDKEIELVIHRLEADMALAKEESEKAAESRIKRLRDKYEAELSELEQSERKLQERCSELKGQLGEAEGENLRLQGLVRQKERALEDAQAVNEQLSSERSNLAQVIRQEFEDRLAASEEETRQAKAELATLQARQQLELEEVHRRVKTALARKEEAVSSLRTQHEAAVKRADHLEELLEQHRRPTPSTK |  | binds
